Measurements reported in PubChem BioAssay AID1508597 (Cure First, 2020).
Aim: 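Survival screen with siRNA in ovarian cancer cells derived from patients, with or without rucaparib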 (primary screen). Cells: human ovarian carcinoma lines grown from tumours: OCI-P5x (papillary serous) and OCI-C5x (clear cell). Reagent: siRNA pool against human genes, 1.25 pmol siRNA per well. Time to read-out: 72 h or 96 h, depending on the cell culture. Challenge: rucaparib 20 µM (about IC30) or vehicle, present until read-out. Measured: 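ATP luminescence measured at 72 or 96 h according to the culture, then normalised and expressed as percent viability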. Direction: viability, normalised: higher = more viable cells remaining. Call rule: 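Active when normalised viability falls below 80 percent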. Calls: active = viability under 80%; inactive = viability 80% or more.
This is an unselected part of about 2,100 deposited reagents. 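Calls flag viability under 80% in either arm, not effects specific to rucaparib; the reference for percent is not stated.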 Not given: the 100% reference.

The opening 5 entries as a preview:
gene knocked down	rucaparib or vehicle	cell line	technical replicate	viability, normalised (%)	Call
PRKCD (protein kinase C delta)	Rucaparib	OCI-C5x (clear cell)	1	43.8	active
PRKCD (protein kinase C delta)	Rucaparib	OCI-C5x (clear cell)	2	66.1	active
PRKCD (protein kinase C delta)	Rucaparib	OCI-C5x (clear cell)	3	51.8	active
PRKCD (protein kinase C delta)	Rucaparib	OCI-P5x (serous)	1	70	active
PRKCD (protein kinase C delta)	Rucaparib	OCI-P5x (serous)	2	56.7	active

The list itself, from the start:
gene knocked down	rucaparib or vehicle	cell line	technical replicate	viability, normalised (%)	Call
PRKCD (protein kinase C delta)	Rucaparib	OCI-C5x (clear cell)	1	43.8	active
PRKCD (protein kinase C delta)	Rucaparib	OCI-C5x (clear cell)	2	66.1	active
PRKCD (protein kinase C delta)	Rucaparib	OCI-C5x (clear cell)	3	51.8	active
PRKCD (protein kinase C delta)	Rucaparib	OCI-P5x (serous)	1	70	active
PRKCD (protein kinase C delta)	Rucaparib	OCI-P5x (serous)	2	56.7	active
PRKCD (protein kinase C delta)	Rucaparib	OCI-P5x (serous)	3	54.1	active
PRKCD (protein kinase C delta)	Vehicle	OCI-C5x (clear cell)	1	65	active
PRKCD (protein kinase C delta)	Vehicle	OCI-C5x (clear cell)	2	49	active
PRKCD (protein kinase C delta)	Vehicle	OCI-C5x (clear cell)	3	43.7	active
PRKCD (protein kinase C delta)	Vehicle	OCI-P5x (serous)	1	64	active
PRKCD (protein kinase C delta)	Vehicle	OCI-P5x (serous)	2	54.9	active
PRKCD (protein kinase C delta)	Vehicle	OCI-P5x (serous)	3	67.1	active
BID (BH3 interacting domain death agonist)	Rucaparib	OCI-C5x (clear cell)	1	89.7	inactive
BID (BH3 interacting domain death agonist)	Rucaparib	OCI-C5x (clear cell)	2	38.5	active
BID (BH3 interacting domain death agonist)	Rucaparib	OCI-C5x (clear cell)	3	30	active
BID (BH3 interacting domain death agonist)	Rucaparib	OCI-P5x (serous)	1	51.1	active
BID (BH3 interacting domain death agonist)	Rucaparib	OCI-P5x (serous)	2	63.8	active
BID (BH3 interacting domain death agonist)	Rucaparib	OCI-P5x (serous)	3	60.1	active
BID (BH3 interacting domain death agonist)	Vehicle	OCI-C5x (clear cell)	1	32.8	active
BID (BH3 interacting domain death agonist)	Vehicle	OCI-C5x (clear cell)	2	39.3	active
BID (BH3 interacting domain death agonist)	Vehicle	OCI-C5x (clear cell)	3	30.2	active
BID (BH3 interacting domain death agonist)	Vehicle	OCI-P5x (serous)	1	51.2	active
BID (BH3 interacting domain death agonist)	Vehicle	OCI-P5x (serous)	2	53.8	active
BID (BH3 interacting domain death agonist)	Vehicle	OCI-P5x (serous)	3	54.4	active
CDKN2A (cyclin dependent kinase inhibitor 2A)	Rucaparib	OCI-C5x (clear cell)	1	33.9	active
CDKN2A (cyclin dependent kinase inhibitor 2A)	Rucaparib	OCI-C5x (clear cell)	2	37	active
CDKN2A (cyclin dependent kinase inhibitor 2A)	Rucaparib	OCI-C5x (clear cell)	3	34.6	active
CDKN2A (cyclin dependent kinase inhibitor 2A)	Rucaparib	OCI-P5x (serous)	1	51.8	active
CDKN2A (cyclin dependent kinase inhibitor 2A)	Rucaparib	OCI-P5x (serous)	2	52.2	active
CDKN2A (cyclin dependent kinase inhibitor 2A)	Rucaparib	OCI-P5x (serous)	3	50.7	active
CDKN2A (cyclin dependent kinase inhibitor 2A)	Vehicle	OCI-C5x (clear cell)	1	40.7	active
CDKN2A (cyclin dependent kinase inhibitor 2A)	Vehicle	OCI-C5x (clear cell)	2	44	active
CDKN2A (cyclin dependent kinase inhibitor 2A)	Vehicle	OCI-C5x (clear cell)	3	34	active
CDKN2A (cyclin dependent kinase inhibitor 2A)	Vehicle	OCI-P5x (serous)	1	48	active
CDKN2A (cyclin dependent kinase inhibitor 2A)	Vehicle	OCI-P5x (serous)	2	53.2	active
CDKN2A (cyclin dependent kinase inhibitor 2A)	Vehicle	OCI-P5x (serous)	3	37.4	active
ATAD2 (ATPase family AAA domain containing 2)	Rucaparib	OCI-C5x (clear cell)	1	71.7	active
ATAD2 (ATPase family AAA domain containing 2)	Rucaparib	OCI-C5x (clear cell)	2	51.8	active
ATAD2 (ATPase family AAA domain containing 2)	Rucaparib	OCI-C5x (clear cell)	3	43	active
ATAD2 (ATPase family AAA domain containing 2)	Rucaparib	OCI-P5x (serous)	1	51.3	active
ATAD2 (ATPase family AAA domain containing 2)	Rucaparib	OCI-P5x (serous)	2	66.1	active
ATAD2 (ATPase family AAA domain containing 2)	Rucaparib	OCI-P5x (serous)	3	73.2	active
ATAD2 (ATPase family AAA domain containing 2)	Vehicle	OCI-C5x (clear cell)	1	39.9	active
ATAD2 (ATPase family AAA domain containing 2)	Vehicle	OCI-C5x (clear cell)	2	40.9	active
ATAD2 (ATPase family AAA domain containing 2)	Vehicle	OCI-C5x (clear cell)	3	36.1	active
ATAD2 (ATPase family AAA domain containing 2)	Vehicle	OCI-P5x (serous)	1	69.6	active
ATAD2 (ATPase family AAA domain containing 2)	Vehicle	OCI-P5x (serous)	2	86.2	inactive
ATAD2 (ATPase family AAA domain containing 2)	Vehicle	OCI-P5x (serous)	3	49.6	active
KSR2 (kinase suppressor of ras 2)	Rucaparib	OCI-C5x (clear cell)	1	74.7	active
KSR2 (kinase suppressor of ras 2)	Rucaparib	OCI-C5x (clear cell)	2	55.4	active
KSR2 (kinase suppressor of ras 2)	Rucaparib	OCI-C5x (clear cell)	3	59.1	active
KSR2 (kinase suppressor of ras 2)	Rucaparib	OCI-P5x (serous)	1	101	inactive
KSR2 (kinase suppressor of ras 2)	Rucaparib	OCI-P5x (serous)	2	102	inactive
KSR2 (kinase suppressor of ras 2)	Rucaparib	OCI-P5x (serous)	3	70.8	active
KSR2 (kinase suppressor of ras 2)	Vehicle	OCI-C5x (clear cell)	1	60.4	active
KSR2 (kinase suppressor of ras 2)	Vehicle	OCI-C5x (clear cell)	2	59.5	active
KSR2 (kinase suppressor of ras 2)	Vehicle	OCI-C5x (clear cell)	3	67.7	active
KSR2 (kinase suppressor of ras 2)	Vehicle	OCI-P5x (serous)	1	82.6	inactive
KSR2 (kinase suppressor of ras 2)	Vehicle	OCI-P5x (serous)	2	69.8	active
KSR2 (kinase suppressor of ras 2)	Vehicle	OCI-P5x (serous)	3	59.2	active
GUK1 (guanylate kinase 1)	Rucaparib	OCI-C5x (clear cell)	1	47.7	active
GUK1 (guanylate kinase 1)	Rucaparib	OCI-C5x (clear cell)	2	32.8	active
GUK1 (guanylate kinase 1)	Rucaparib	OCI-C5x (clear cell)	3	63	active
GUK1 (guanylate kinase 1)	Rucaparib	OCI-P5x (serous)	1	74.8	active
GUK1 (guanylate kinase 1)	Rucaparib	OCI-P5x (serous)	2	59.9	active
GUK1 (guanylate kinase 1)	Rucaparib	OCI-P5x (serous)	3	71.9	active
GUK1 (guanylate kinase 1)	Vehicle	OCI-C5x (clear cell)	1	31.4	active
GUK1 (guanylate kinase 1)	Vehicle	OCI-C5x (clear cell)	2	41.4	active
GUK1 (guanylate kinase 1)	Vehicle	OCI-C5x (clear cell)	3	40.7	active
GUK1 (guanylate kinase 1)	Vehicle	OCI-P5x (serous)	1	62.7	active
GUK1 (guanylate kinase 1)	Vehicle	OCI-P5x (serous)	2	57.9	active
GUK1 (guanylate kinase 1)	Vehicle	OCI-P5x (serous)	3	63.7	active
RAG2 (recombination activating 2)	Rucaparib	OCI-C5x (clear cell)	1	40.7	active
RAG2 (recombination activating 2)	Rucaparib	OCI-C5x (clear cell)	2	35.9	active
RAG2 (recombination activating 2)	Rucaparib	OCI-C5x (clear cell)	3	37	active
RAG2 (recombination activating 2)	Rucaparib	OCI-P5x (serous)	1	38.3	active
RAG2 (recombination activating 2)	Rucaparib	OCI-P5x (serous)	2	46.2	active
RAG2 (recombination activating 2)	Rucaparib	OCI-P5x (serous)	3	50.5	active
RAG2 (recombination activating 2)	Vehicle	OCI-C5x (clear cell)	1	37.3	active
RAG2 (recombination activating 2)	Vehicle	OCI-C5x (clear cell)	2	28.9	active
RAG2 (recombination activating 2)	Vehicle	OCI-C5x (clear cell)	3	36.6	active
RAG2 (recombination activating 2)	Vehicle	OCI-P5x (serous)	1	56.2	active
RAG2 (recombination activating 2)	Vehicle	OCI-P5x (serous)	2	74.7	active
RAG2 (recombination activating 2)	Vehicle	OCI-P5x (serous)	3	122	inactive
